Data: patent US12162839B1, “4,5-bis(4-bromophenyl)-2-(4-bromophenyl)-1-hexyl-1H-imidazole as an antimicrobial compound” (KING FAISAL UNIVERSITY, priority 2023, dated 2024)
At least one structure is not confirmed: it was looked up by name or label, or the drawing left a doubt.

Experiments:
Format in all cases: cell-based
[1] = tested on: Staphylococcus aureus; test: Antimicrobial testing by agar dilution, Staphylococcus aureus; details: St. Aereus
Method: (§1) The antimicrobial properties of the 4,5-bis(4-bromophenyl)-2-(4-bromophenyl)-1-hexyl-1H-imidazole (5) were studied by the method of agar dilution. Test solutions of each compound were prepared in concentration of 1% using dimethylformamide as a solvent then they are diluted in physiological solution to obtain the final experimental dilutions 1:100, 1:200, 1:400, 1:800. The effect of these substances were compared with furacillin in a controllable study. The testing microbes used were gram positive bacteria Staphylococcus aureus, gram negative bacteria Escherichia coli, Pseudomonas aeruginosa and Candida albicans fungi were taken. The experiments used for this survey were meat-pentonlu agar (EPA) for cultivation of bacteria and Saburo environment for fungi. Each experiment used 1 ml of test solution on each plate 500 min. Add 2 drops of emulsified with microbes feel. All experimental samples were taken from the agar after 10, 20, 40, 60 minutes in the environment on the basis of Patrk planted. Bacteria were cultivated at a temperature of 37° C. for 1 day and the mushroom was kept in a thermostat for […] at a temperature of 28° C. in the. Then results were checked.

[2] = tested on: Candida albicans; test: Antimicrobial testing by agar dilution, Candida albicans
Method: as §1

[3] = tested on: Escherichia coli; test: Antimicrobial testing by agar dilution, Escherichia coli; details: E. Coli
Method: as §1

[4] = tested on: Pseudomonas aeruginosa; test: Antimicrobial testing by agar dilution, Pseudomonas aeruginosa; details: Ps. aeruginosa
Method: as §1

[5] = dilution rate 1:100, exposure time 10 min
[6] = dilution rate 1:100, exposure time 20 min
[7] = dilution rate 1:100, exposure time 40 min
[8] = dilution rate 1:100, exposure time 60 min
[9] = dilution rate 1:200, exposure time 10 min
[10] = dilution rate 1:200, exposure time 20 min
[11] = dilution rate 1:200, exposure time 40 min
[12] = dilution rate 1:200, exposure time 60 min
[13] = dilution rate 1:400, exposure time 10 min
[14] = dilution rate 1:400, exposure time 20 min
[15] = dilution rate 1:400, exposure time 40 min
[16] = dilution rate 1:400, exposure time 60 min
[17] = dilution rate 1:800, exposure time 10 min
[18] = dilution rate 1:800, exposure time 20 min
[19] = dilution rate 1:800, exposure time 40 min
[20] = dilution rate 1:800, exposure time 60 min

`NC(=O)N/N=C/c1ccc([N+](=O)[O-])o1` [Furacilin] was tested, and the antimicrobial activity [1, 5] was “−”, the antimicrobial activity [1, 6] was “−” and the antimicrobial activity [1, 7] was “−”. For the same compound, the antimicrobial activity [1, 8] was “−”, the antimicrobial activity [1, 9] was “+” and the antimicrobial activity [1, 10] was “+”. The antimicrobial activity [1, 11] was “+”, the antimicrobial activity [1, 12] was “+” and the antimicrobial activity [1, 13] was “+”. The antimicrobial activity [1, 14] was “+”, the antimicrobial activity [1, 15] was “+” and the antimicrobial activity [1, 16] was “+”. For the same compound, the antimicrobial activity [1, 17] was “+”, the antimicrobial activity [1, 18] was “+” and the antimicrobial activity [1, 19] was “+”. The antimicrobial activity [1, 20] was “+”, the antimicrobial activity [2, 5] was “−” and the antimicrobial activity [2, 6] was “−”. The antimicrobial activity [2, 7] was “+”, the antimicrobial activity [2, 8] was “+” and the antimicrobial activity [2, 9] was “+”. The antimicrobial activity [2, 10] was “+”, the antimicrobial activity [2, 11] was “+” and the antimicrobial activity [2, 12] was “+”. For the same compound, the antimicrobial activity [2, 13] was “+”, the antimicrobial activity [2, 14] was “+” and the antimicrobial activity [2, 15] was “+”. For the same compound, the antimicrobial activity [2, 16] was “+”, the antimicrobial activity [2, 17] was “+” and the antimicrobial activity [2, 18] was “+”. For the same compound, the antimicrobial activity [2, 19] was “+”, the antimicrobial activity [2, 20] was “+” and the antimicrobial activity [3, 5] was “−”. The antimicrobial activity [3, 6] was “−”, the antimicrobial activity [3, 7] was “−” and the antimicrobial activity [3, 8] was “−”. For the same compound, the antimicrobial activity [3, 9] was “+”, the antimicrobial activity [3, 10] was “+” and the antimicrobial activity [3, 11] was “+”. For the same compound, the antimicrobial activity [3, 12] was “+”, the antimicrobial activity [3, 13] was “+” and the antimicrobial activity [3, 14] was “+”. For the same compound, the antimicrobial activity [3, 15] was “+”, the antimicrobial activity [3, 16] was “+” and the antimicrobial activity [3, 17] was “+”. For the same compound, the antimicrobial activity [3, 18] was “+”, the antimicrobial activity [3, 19] was “+” and the antimicrobial activity [3, 20] was “+”. The antimicrobial activity [4, 5] was “+”, the antimicrobial activity [4, 6] was “+” and the antimicrobial activity [4, 7] was “+”. For the same compound, the antimicrobial activity [4, 8] was “+”, the antimicrobial activity [4, 9] was “+” and the antimicrobial activity [4, 10] was “+”. The antimicrobial activity [4, 11] was “+”, the antimicrobial activity [4, 12] was “+” and the antimicrobial activity [4, 13] was “+”. For the same compound, the antimicrobial activity [4, 14] was “+”, the antimicrobial activity [4, 15] was “+” and the antimicrobial activity [4, 16] was “+”. For the same compound, the antimicrobial activity [4, 17] was “+”, the antimicrobial activity [4, 18] was “+” and the antimicrobial activity [4, 19] was “+”. For the same compound, the antimicrobial activity [4, 20] was “+”.
